The values below come from article PMC12040169 (PLOS Biology, 2025).

The other results are listed elsewhere or left out.

For this assay, the system named is T1, CTL2-GFP (C. trachomatis L2/434/Bu, GFP-expressing).
T1 construct: L2/434/Bu, GFP-expressing
More on the design: species or system HeLa; Intracellular C. trachomatis growth in HeLa cells, bulk GFP fluorescence relative to DMSO. The note with it: bulk GFP, single well; 28.5 h, 10 µM; inhibitor.
With `Cc1cc(C)nc(N2CCN(CCC(=O)O)CC2)n1` [CBK287272], the “% of control remaining” value is reported as 157.259%.

For the compound `CC(=O)NC1(c2ccccc2F)CCN(c2ncc(-c3ccco3)c(-c3ccco3)n2)CC1` [CBK286428], the “% of control remaining” value was 154.26%.

`OC(CSc1ncnc2sc3c(c12)CCC3)Cn1cccn1` (stereo not drawn) [CBK304149]: the “% of control remaining” value was 126.996%.

On to `Cc1nn(C)cc1CN1CCN(C(=S)NCCc2ccccc2)CC1` [CBK267069], for which the “% of control remaining” value amounted to 110.921%.

For the compound `CC(C)c1ccc(S(=O)(=O)NCCC2CCN(Cc3ccccc3)CC2)cc1` [CBK043456], the “% of control remaining” value is reported as 92.0896%.

Turning to `O=C(Nc1ccc2cccc(O)c2n1)c1cc[nH]c1` [CBK122743], the “% of control remaining” value was found to be 96.5544%.

On to `O=C(c1ccncc1)N1CCCn2nc(-c3cccnc3)cc2C1` [CBK288607], for which the “% of control remaining” value is recorded as 113.213%.

Consider `CC(C)(O)c1cc(CC2(NCc3ccco3)COC2)no1` [CBK289255], for which the “% of control remaining” value came to 131.531%.

As to `O=S(=O)(Nc1ccc2nsnc2c1)c1ccc(Br)cc1C(F)(F)F` [CBK062233], the “% of control remaining” value stood at 123.031%.

Take `CC(C)Oc1ccc(C(=O)N2CC(C)C(N3CCOCC3)C2)cn1` (stereo not drawn) [CBK304497]: the “% of control remaining” value is on record as 110.246%.

On to `Cn1c(SCC(=O)Nc2ccccc2[N+](=O)[O-])nc2ccccc2c1=O` [CBK265096], for which the “% of control remaining” value was found to be 101.575%.

Consider `OC(COc1cccc2c1CCCC2)CN1CCC(O)(c2ccc(Br)cc2)CC1` (stereo not drawn) [CBK003584], for which the “% of control remaining” value was 171.674%.

For the compound `Nc1ncc(-c2ccc3c(c2)OCO3)nc1Nc1ccc2[nH]ccc2c1` [CBK063667], the “% of control remaining” value is reported as 121.356%.

Regarding `O=C1CC(N2CCN(Cc3ccc4c(c3)OCO4)CC2)C(=O)N1c1cc(Cl)cc(Cl)c1` (stereo not drawn) [CBK074554], the “% of control remaining” value is 125.744%.

As to `O=C(O)C/N=C1/CCCc2ccccc2N1` [CBK261809], the “% of control remaining” value turned out to be 116.322%.

As to `O=C(Cc1nc(-c2ccncc2)n[nH]1)NC1CCCCC1` [CBK288544], the “% of control remaining” value amounted to 96.8653%.

For the compound `CCn1ncc(CN(C)C(=O)CCC2CCCCN2C)c1C` (stereo not drawn) [CBK307329], the “% of control remaining” value was determined as 105.29%.

Turning to `Cc1ccccc1NC(=O)COc1ccc(S(=O)(=O)N2CCCC2)cc1Cl` [CBK268938], the “% of control remaining” value is 130.082%.

As for `CC(CC(=O)O)CC(=O)N1CCCC1c1nc(-c2ccc(F)cc2)c2ccccn12` (stereo not drawn) [CBK046626], the “% of control remaining” value is recorded as 140.451%.

Regarding `O=C(CN1CCCC1=O)NC1(C(F)(F)F)NC(=O)N(c2ccc(F)cc2)C1=O` (stereo not drawn) [CBK268057], the “% of control remaining” value is reported as 104.79%.

Consider `CCn1c(-c2ccc3c(c2)OCCO3)cnc1SCC(=O)c1cc(C)[nH]c1C` [CBK297880], for which the “% of control remaining” value was 141.878%.

`O=C1CC(SCc2nc3ccccc3[nH]2)C(=O)N1c1ccccc1Cl` (stereo not drawn) [CBK266702]: the “% of control remaining” value is reported as 92.4648%.

Turning to `O=C(O)Cn1cc(I)c(=O)[nH]c1=O` [CBK262698], the “% of control remaining” value is 125.346%.

Regarding `Cc1[nH]c(=O)[nH]c(=O)c1CCC(=O)N(C)CC(=O)Nc1cccc(F)c1` [CBK305703], the “% of control remaining” value is 124.526%.

Turning to `CC(=O)c1ccc(-c2cc(Nc3ccc(O)cc3C)ncn2)s1` [CBK091052], the “% of control remaining” value is on record as 97.1899%.

On to `CC1CN(c2cc(CO)c(F)cn2)CC2(CCOC2)O1` (stereo not drawn) [CBK304772], for which the “% of control remaining” value is given as 135.752%.

As for `COc1ccc(C(C)C)cc1-c1cnc2[nH]c(=O)n([C@H](CO)C(C)C)c2n1` [CBK064962], the “% of control remaining” value was determined as 107.256%.

In the case of `CC(=O)N(C)Cc1cccc(Nc2ncnc3c2cnn3C)c1` [CBK306319], the “% of control remaining” value was determined as 151.36%.

On to `O=C1c2ccccc2C(=O)N1CN(Cc1ccc2c(c1)OCO2)CN1C(=O)c2ccccc2C1=O` [CBK265197], for which the “% of control remaining” value worked out at 107.037%.

Take `COC(=O)c1ccc(NC(=O)N2CCCC2c2nc(-c3ccccc3)c3ccccn23)cc1` (stereo not drawn) [CBK046725]: the “% of control remaining” value was determined as 161.991%.

Turning to `Cc1cc(O)n2nc(CC(=O)NCCCn3ccnc3C(C)C)nc2n1` [CBK306876], the “% of control remaining” value worked out at 128.821%.

With `CCOC(=O)c1sc(NCCOc2cccc(C)c2)nc1C` [CBK265574], the “% of control remaining” value came out at 129.285%.

As for `O=C(NCCCN1CCOCC1)c1cc(Cl)ccc1[N+](=O)[O-]` [CBK265470], the “% of control remaining” value stood at 117.219%.

With `O=C1CC(C(=O)O)CN(c2cccs2)C1` (stereo not drawn) [CBK021796], the “% of control remaining” value amounted to 129.88%.

Turning to `O=C1NC/C=C/CC2(CCN(C(=O)c3cccnn3)CC2)C(=O)NCCOc2ccccc21` [CBK292095], the “% of control remaining” value turned out to be 97.0691%.

`CCOC(=O)C(CO)NC(=O)c1cncc(Br)c1` (stereo not drawn) [CBK263926]: the “% of control remaining” value turned out to be 134.321%.

Consider `COC(=O)CN1C(=O)S/C(=C/c2cc(C)n(-c3ccc(S(N)(=O)=O)cc3)c2C)C1=O` [CBK265249], for which the “% of control remaining” value is 100%.

In the case of `C[C@@H]1CC(=O)CCC1NC(=O)c1ccccc1` (stereo partly drawn) [CBK017832], the “% of control remaining” value came out at 151.158%.

`Cc1ncccc1COC(=O)N1CCCC(F)C1` (stereo not drawn) [CBK200155]: the “% of control remaining” value is reported as 147.91%.

`O=S(=O)(Nc1cccc(Br)c1)c1ccc(OC(F)(F)F)cc1` [CBK044369]: the “% of control remaining” value is listed as 90.1489%.

Take `CC(=O)c1cccc(NC(=O)Cn2ncc(N3CCCC3)c(Cl)c2=O)c1` [CBK304395]: the “% of control remaining” value stood at 120.773%.

As for `COc1ccc(-c2csc(CC(=O)O)n2)cc1` [CBK159469], the “% of control remaining” value came out at 112.374%.

With `CC1(C)CC(NC(=O)C23CCC(C)(c4nc5ccccc5nc42)C3(C)C)CC(C)(C)N1` (stereo not drawn) [CBK266559], the “% of control remaining” value stood at 149.725%.

With `O=C(CC1SC(NC2CC3C=CC2C3)=NC1=O)NCc1ccccc1` (stereo not drawn) [CBK049940], the “% of control remaining” value is reported as 152.934%.

`CNC(=O)C1(Cc2ccc(-c3ccccc3)cc2)CCN(C(=O)COc2ccccc2)CC1` [CBK285766]: the “% of control remaining” value is recorded as 137.127%.

Take `Cc1nn(C)c(Cl)c1S(=O)(=O)NCc1cc(C)n(C)n1` [CBK062154]: the “% of control remaining” value amounted to 162.338%.

`CCCC/C=C/c1cnc2[nH]c(=O)n(CCCOC)c2n1` [CBK064540]: the “% of control remaining” value was found to be 92.142%.

As to `O=C(c1ccccc1)c1ccccc1OCCO` [CBK000728], the “% of control remaining” value is recorded as 129.502%.

As for `Cc1ccc(SCCNS(=O)(=O)c2ccc(C)cc2)cc1` [CBK263564], the “% of control remaining” value was 107.836%.

Consider `Cc1cc(NC(=O)CSc2nnc3ccc(-c4ccccc4)nn23)no1` [CBK287679], for which the “% of control remaining” value worked out at 99.6491%.

As for `COc1cnc(-c2ccsc2)c(NC(=O)CC(C)C)n1` [CBK145292], the “% of control remaining” value was 170.131%.

`COc1ccc2c(c1)CCCN2C(=O)c1sc2ccccc2c1Cl` [CBK056960]: the “% of control remaining” value is 86.1911%.

As for `Cc1ccccc1CNCCNCCO` [CBK278293C], the “% of control remaining” value is reported as 104.818%.

Regarding `Cn1c2c(c(=O)[nH]c1=O)C1(O)C(=O)c3ccccc3C1(O)N2` (stereo not drawn) [CBK261683], the “% of control remaining” value is 90.8798%.

In the case of `Cc1ncsc1C(=O)N1CCCC(n2cnc3cc(F)ccc32)C1` (stereo not drawn) [CBK284470], the “% of control remaining” value was determined as 122.781%.

Regarding `O=C(C1CC1)N1CCC[C@H]1Cn1nc(-c2ccc(F)cc2)ccc1=O` [CBK284252], the “% of control remaining” value is 127.58%.

Take `O=C(c1ccco1)N1CCC(n2c(=O)oc3ccc(Cl)cc32)CC1` [CBK284343]: the “% of control remaining” value is recorded as 85.7518%.

With `O=C(NCCN1CCOCC1)c1ccc2nccnc2c1` [CBK268806], the “% of control remaining” value came to 119.05%.

`Cc1nc(-c2ccccc2)sc1CNC(=O)C(F)(F)F` [CBK092363]: the “% of control remaining” value was found to be 124.335%.

For the compound `CCOc1ccc(NC(=O)N(CCO)Cc2nccn2C)cc1C#N` [CBK307634], the “% of control remaining” value came to 152.909%.

Regarding `NC(=O)CNC(=O)C1CCCN(c2nc3c(-c4ccccc4)csc3c(=O)[nH]2)C1` (stereo not drawn) [CBK215487], the “% of control remaining” value is 156.33%.

On to `COc1ncc(-c2nccnc2OC)c(OC)n1` [CBK106744], for which the “% of control remaining” value is 104.952%.

As for `Brc1cnc(-n2cnc3ccccc32)nc1` [CBK288546], the “% of control remaining” value is listed as 136.566%.

With `O=C(CN1CCC(c2ccc(F)cc2)CC1)N1CCOCC1` [CBK283683], the “% of control remaining” value came to 177.576%.

As for `CNCCC(Sc1ccccn1)c1ccccc1` (stereo not drawn) [CBK021724C], the “% of control remaining” value is listed as 138.92%.

Consider `COc1ccc2ccccc2c1[S+]([O-])NC1CCCCC1` (stereo not drawn) [CBK022400], for which the “% of control remaining” value was determined as 156.074%.

Consider `N#Cc1c(N)nc(SCC(=O)c2cc3ccccc3oc2=O)c(C#N)c1-c1ccc(O)cc1` [CBK261269], for which the “% of control remaining” value turned out to be 116.093%.

With `Nc1n[nH]c(SCC(=O)Nc2ccc(Br)cc2Cl)n1` [CBK267875], the “% of control remaining” value turned out to be 112.369%.

`Cc1nn(Cc2cccnc2)c(=O)n2cccc12` [CBK283848]: the “% of control remaining” value is 97.962%.

Regarding `CCN(CC)C(=O)c1ccc(-n2ccnc2)c(-n2cccc2)c1` [CBK285371], the “% of control remaining” value is given as 110.432%.

Take `CC(C)c1ccc(NC(=O)CN2CCN(c3ccc(C(F)(F)F)cn3)CC2)cc1` [CBK086000]: the “% of control remaining” value worked out at 124.363%.

As to `CCn1cc(C(=O)N2CCN(Cc3ccco3)C[C@@H]2C(C)C)c(C)n1` [CBK285488], the “% of control remaining” value came to 92.5689%.

For the compound `CCn1c(CN2CCn3c(nnc3C3CC3)C2)nc2c(F)cccc21` [CBK306300], the “% of control remaining” value amounted to 105.199%.

Take `NC1CCC(N(CCc2ccccc2)C(=O)Nc2ccc3c(c2)OCO3)CC1` (stereo not drawn) [CBK000480C]: the “% of control remaining” value is 112.577%.

For the compound `O=C(Cn1cccn1)NC(CN1CCCCC1)c1ccccc1` (stereo not drawn) [CBK281726], the “% of control remaining” value came out at 136.113%.

As to `Cc1cc(C)n(CC2CN(CC(=O)NCc3ccccn3)CCO2)n1` (stereo not drawn) [CBK305344], the “% of control remaining” value was 122.044%.

On to `CCc1ccc(O)c(NC(=S)NC(=O)c2cccc3c(Br)cccc23)c1` [CBK264385], for which the “% of control remaining” value amounted to 102.692%.

For the compound `CC(=O)NCCn1cc2c(n1)[C@H]1CN(C(=O)c3ccccc3)C[C@H]1C2` [CBK282073], the “% of control remaining” value is reported as 88.5193%.

With `O=C(/C=C/c1cccnc1)NCc1ccc(OC2CCNCC2)cc1` [CBK038945T], the “% of control remaining” value is recorded as 127.832%.

Take `Cc1nc(C)c(C(C)NCc2c(C(C)C)nn(C)c2N(C)C)s1` (stereo not drawn) [CBK304005]: the “% of control remaining” value came out at 150.974%.

For `Cc1ccc(C2=N/C(=C/c3ccc(OS(=O)(=O)c4ccc(C)c([N+](=O)[O-])c4)cc3)C(=O)O2)cc1` [CBK264647], the “% of control remaining” value amounted to 106.388%.
